In PMC3100329:
Results are given in words; binding and its absence hold for the method and conditions named. In cells and extracts the contact can be indirect. For some assays here: Binding can be weak; no strength is given.

T1: rat trefoil factor 3 (rat (endogenous in rat intestinal mucus)) (UniProt Q03191)
T1 sequence: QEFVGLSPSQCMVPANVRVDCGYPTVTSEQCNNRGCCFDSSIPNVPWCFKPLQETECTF


Assays:
[1] = target: T1, rat trefoil factor 3 (rat (endogenous in rat intestinal mucus)); assay: co-IP; rat intestinal mucus dissolved in RIPA buffer with 100 mM DTT (reduced) before immunoprecipitation with anti-rTFF3, anti-rIgGFcγBP or anti-rMuc2 polyclonal antibodies; blotted with each antibody
[2] = target: T1, rat trefoil factor 3 (rat (endogenous in rat intestinal mucus)); assay: co-IP; non-reduced rat intestinal mucus (loose and firm layer), RIPA buffer soluble supernatant; immunoprecipitated 16 h at 4°C with anti-rTFF3, anti-rIgGFcγBP or anti-rMuc2 polyclonal serum and protein-G agarose; immunoprecipitates reduced with 100 mM DTT before SDS-PAGE and blotting; preimmune serum as control
[3] = target: rat IgGFc gamma binding protein C-terminal domain (rat (endogenous in rat intestinal mucus)); assay: co-IP; rat intestinal mucus dissolved in RIPA buffer with 100 mM DTT (reduced) before immunoprecipitation with anti-rTFF3, anti-rIgGFcγBP or anti-rMuc2 polyclonal antibodies; blotted with each antibody
[4] = target: rat Muc2 C-terminal domain (rat (endogenous in rat intestinal mucus)); assay: as above
[5] = target: rat IgGFc gamma binding protein C-terminal domain (rat (endogenous in rat intestinal mucus)); assay: co-IP; non-reduced rat intestinal mucus (loose and firm layer), RIPA buffer soluble supernatant; immunoprecipitated 16 h at 4°C with anti-rTFF3, anti-rIgGFcγBP or anti-rMuc2 polyclonal serum and protein-G agarose; immunoprecipitates reduced with 100 mM DTT before SDS-PAGE and blotting; preimmune serum as control
[6] = target: rat Muc2 C-terminal domain (rat (endogenous in rat intestinal mucus)); assay: as above

binding [2] | binding [5] | binding [6] | Molecule | binding [1] | binding [3] | binding [4]
binds |  |  | rat Muc2 C-terminal domain (domain or fragment) | no binding (only mucus pretreated with 100 mM DTT) |  | 
binds |  |  | rat IgGFc gamma binding protein C-terminal domain (domain or fragment) | no binding (only mucus pretreated with 100 mM DTT) |  | 
 | binds | binds | rat trefoil factor 3 (protein, UniProt Q03191 23-81) QEFVGLSPSQCMVPANVRVDCGYPTVTSEQCNNRGCCFDSSIPNVPWCFKPLQETECTF |  | no binding (only mucus pretreated with 100 mM DTT) | no binding (only mucus pretreated with 100 mM DTT)
